# Read-outs that look alike come from different tables or passages of the source. These are yes or no findings as the source states them, for the method shown. Binding seen in cells or lysates may run through a third protein. Some binding calls cover weakened binding; strength is not graded here.
# B1: O-GlcNAcylation transferase (OGT) (enzyme, UniProt O15294 1-1046)
# chain: MASSVGNVADSTEPTKRMLSFQGLAELAHREYQAGDFEAAERHCMQLWRQEPDNTGVLLLLSSIHFQCRRLDRSAHFSTLAIKQNPLLAEAYSNLGNVYKERGQLQEAIEHYRHALRLKPDFIDGYINLAAALVAAGDMEGAVQAYVSALQYNPDLYCVRSDLGNLLKALGRLEEAKACYLKAIETQPNFAVAWSNLGCVFNAQGEIWLAIHHFEKAVTLDPNFLDAYINLGNVLKEARIFDRAVAAYLRALSLSPNHAVVHGNLACVYYEQGLIDLAIDTYRRAIELQPHFPDAYCNLANALKEKGSVAEAEDCYNTALRLCPTHADSLNNLANIKREQGNIEEAVRLYRKALEVFPEFAAAHSNLASVLQQQGKLQEALMHYKEAIRISPTFADAYSNMGNTLKEMQDVQGALQCYTRAIQINPAFADAHSNLASIHKDSGNIPEAIASYRTALKLKPDFPDAYCNLAHCLQIVCDWTDYDERMKKLVSIVADQLEKNRLPSVHPHHSMLYPLSHGFRKAIAERHGNLCLDKINVLHKPPYEHPKDLKLSDGRLRVGYVSSDFGNHPTSHLMQSIPGMHNPDKFEVFCYALSPDDGTNFRVKVMAEANHFIDLSQIPCNGKAADRIHQDGIHILVNMNGYTKGARNELFALRPAPIQAMWLGYPGTSGALFMDYIITDQETSPAEVAEQYSEKLAYMPHTFFIGDHANMFPHLKKKAVIDFKSNGHIYDNRIVLNGIDLKAFLDSLPDVKIVKMKCPDGGDNADSSNTALNMPVIPMNTIAEAVIEMINRGQIQITINGFSISNGLATTQINNKAATGEEVPRTIIVTTRSQYGLPEDAIVYCNFNQLYKIDPSTLQMWANILKRVPNSVLWLLRFPAVGEPNIQQYAQNMGLPQNRIIFSPVAPKEEHVRRGQLADVCLDTPLCNGHTTGMDVLWAGTPMVTMPGETLASRVAASQLTCLGCLELIAKNRQEYEDIAVKLGTDLEYLKKVRGKVWKQRISSPLFNTKQYTMELERLYLQMWEHYAAGNKPDHMIKPVEVTESA
# Tests used:
# [1] = target: cell division cycle 27 (CDC27) (human (endogenous in MM.1S)) (UniProt P30260); experiment: co-IP; anti-CDC27 antibody (rabbit IgG as isotype control) on rProtein A/G beads; whole-cell lysates of MM.1S cells treated with vehicle or OSMI-1; lysates pre-cleared with unprocessed beads; detection by blot
# [2] = target: cell division cycle 27 (CDC27) (human (endogenous in MM.1S)) (UniProt P30260); experiment: as above; remark: listed apart in the source
Molecule,binding [1],binding [2]
p62 (an autophagy-related protein) (from UniProt Q13501 1-440),binds,–
B1,–,binds

# From article PMC12205061
